# Values from PubChem BioAssay AID1159578 (Peter MacCallum Cancer Centre, 2015).
# Screen: 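Genome-wide hunt for genes controlling movement of lymphatic endothelial cells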 (primary screen)
# Cell system: human lymphatic endothelial cells
# Reagents: siRNA pool against human genes, 40 nM
# Time to read-out: 48 h after transfection
# Measured: 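Cells stained with dye and imaged after a scratch; covered wound area and nuclei counted, duplicates averaged, migration set against mock wells and turned into a robust z-score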
# Reading the numbers: migration robust z-score: higher = faster migration into the scratch; migration relative to mock: higher = more scratch area covered than mock; nuclei per well: higher = more cells in the well
# Call rule: 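Pools averaging fewer than 3300 nuclei are never called; remaining pools count as changed when migration robust z lies outside -2 to 2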
# Calls: active = migration changed; inactive = no migration change, or too few cells
# In all, the deposit lists about 18,000 reagents; this is an unselected part. Of all reagents, about 1,030 (5.7%) got an active call. 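Inactive calls also include pools with fewer than 3300 nuclei, whose migration was not assessed.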 Raw values are not corrected between plates. Unmarked entries are inactive.
target gene,migration robust z-score,migration class with cell-count check,migration relative to mock,"nuclei per well, duplicate mean"
RAB15,0.2,migration z between -2 and 2; enough cells,0.94,4700
MAGEA9B,-0.18,migration z between -2 and 2; enough cells,0.84,5684
SLC25A41,-3.48,under 3300 nuclei; migration not judged,-0.04,1853
FNIP1,1.75,migration z between -2 and 2; enough cells,1.34,4378
ZNF587,-0.92,migration z between -2 and 2; enough cells,0.64,4288
CTRL,3.32 (active),migration z above 2; enough cells,1.44,5256
PEBP4,1.17,migration z between -2 and 2; enough cells,1.19,5412
TYRO3,-3.25 (active),migration z below -2; enough cells,0.18,3636
TAAR1,1.48,migration z between -2 and 2; enough cells,1.09,6120

The list goes on (3 carried over from the part before).
target gene,migration robust z-score,migration class with cell-count check,migration relative to mock,"nuclei per well, duplicate mean"
PEBP4,1.17,migration z between -2 and 2; enough cells,1.19,5412
TYRO3,-3.25 (active),migration z below -2; enough cells,0.18,3636
TAAR1,1.48,migration z between -2 and 2; enough cells,1.09,6120
TMED3,-0.69,migration z between -2 and 2; enough cells,0.7,5244
TIAL1,0.16,migration z between -2 and 2; enough cells,0.84,6811
GJB4,-1.4,migration z between -2 and 2; enough cells,0.53,7238
ATP6V0D1,-2.46 (active),migration z below -2; enough cells,0.33,3680
ARSB,-1.14,migration z between -2 and 2; enough cells,0.58,5918
REEP2,-0.92,migration z between -2 and 2; enough cells,0.65,5662
NR0B1,-0.94,migration z between -2 and 2; enough cells,0.62,5736
LINC02897,1.44,migration z between -2 and 2; enough cells,1.26,6241
CDHR5,-2.11 (active),migration z below -2; enough cells,0.34,5556
SH3RF2,0.57,migration z between -2 and 2; enough cells,0.92,5506
RIPK2,-0.88,migration z between -2 and 2; enough cells,0.64,4854
SDHAF4,-1.15,migration z between -2 and 2; enough cells,0.58,6196
CD80,-1.25,migration z between -2 and 2; enough cells,0.56,5132
KYAT1,-0.06,migration z between -2 and 2; enough cells,0.87,5408
